The chains behind the UniProt entries cited, without tags or fusion partners.
UniProt P18825, whole entry: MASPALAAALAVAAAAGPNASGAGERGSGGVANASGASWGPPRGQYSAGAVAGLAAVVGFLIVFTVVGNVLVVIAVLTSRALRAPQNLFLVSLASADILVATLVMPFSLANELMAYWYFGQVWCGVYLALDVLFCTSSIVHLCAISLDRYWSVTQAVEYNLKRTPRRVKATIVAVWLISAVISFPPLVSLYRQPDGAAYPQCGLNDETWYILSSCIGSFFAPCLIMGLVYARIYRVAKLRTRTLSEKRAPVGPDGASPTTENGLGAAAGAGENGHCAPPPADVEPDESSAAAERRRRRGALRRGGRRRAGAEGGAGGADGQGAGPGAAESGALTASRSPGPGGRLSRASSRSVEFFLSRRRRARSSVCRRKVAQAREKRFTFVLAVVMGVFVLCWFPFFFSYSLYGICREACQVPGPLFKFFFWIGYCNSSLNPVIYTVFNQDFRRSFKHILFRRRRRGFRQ

In US20100029620A1, “SUBSTITUTED TRIAZOLINE, TETRAZOLONE AND IMIDAZOLONE DERIVATIVES FOR USE AS A MEDICINE” (JANSSEN PHARMACEUTICA N.V., priority 2004, published 2010):

Target: human adrenergic-α2C receptor (Homo sapiens, UniProt P18825)
Assay: Radioligand binding experiment for α2C-adrenoceptor ([3H]-raulwolscine competition, CHO cell membranes)
Conditions: [3H]raulwolscine 1 nM, membranes of CHO cells transfected with human α2C receptor
Experimental: The interaction of the compounds of Formula (I) with α2C-adrenoceptor receptors was assessed in in vitro radioligand binding experiments. In general, a low concentration of a radioligand with a high binding affinity for a particular receptor or transporter is incubated with a sample of a tissue preparation enriched in a particular receptor or transporter or with a preparation of cells expressing cloned human receptors in a buffered medium. During the incubation, the radioligand binds to the receptor or transporter. When equilibrium of binding is reached, the receptor bound radioactivity is separated from the non-bound radioactivity, and the receptor- or transporter-bound activity is counted. The interaction of the test compounds with the receptor is assessed in competition binding experiments. […]
Membranes were thawed and re-homogenized in incubation buffer (glycylglycine 25 mM, pH 8.0). […] Filter-bound radioactivity was determined by scintillation counting in a Topcount (Packard, Meriden, CT) and results were expressed as counts per minute (cpm). Non-specific binding was determined in the presence of 1 μM oxymetazoline for hα2A- and hα2B receptors and 1 μM spiroxatrine for hα2C receptors.
Data from assays in the presence of compound were calculated as a percentage of total binding measured in the absence of test compound. […]

For `O=c1n(CC2CCN(CCOc3ccccc3)CC2)cnn1CCN1CCN(Cc2ccc3ccccc3c2)CC1`, the “pIC50 α2C” value was 8.6 and 8.1.

Structures were worked out from names or drawings and are uncertain. For part of its entries the source gives two or more results. They are shown here; other results are not. An entry can have further records. Values given together seem to repeat one measurement on other runs, samples or individuals.
